Source: patent US20220356210A1, “A SERIES OF INJECTABLE HYDROGELS SELF-ASSEMBLED FROM SHORT PEPTIDES FOR VARIOUS BIOMEDICAL APPLICATIONS” (Agency for Science, Technology and Research, priority 2019, published 2022)
Where two headings read alike, the source gives them in different places. At least one peptide structure holds a part that was inferred or is arguable (an end, a ring closure or a residue). No end group written: not given here.

Key:
S. aureus = assay: Disk diffusion assay; type: cell-based; settings: sterile filter disc containing peptide at various concentrations, 24 h at 37° C.
Protocol: Antimicrobial activity was further tested through a disk diffusion assay. Briefly, microbial suspension (S. aureus, ATCC No. 6538) with 3.5×10^6 CFU/mL (40 μL) was spread on 1.5% LB agar plates. Disks (Sigma) were prepared to contain 50 μL of peptides with various concentrations by dripping 50 μL of peptides solutions onto a sterile disk. Disks were air-dried for several minutes before being placed onto different zones in the agar plates. Hydrogels (100 μL) were placed onto LB agar plates. The plates were incubated for 24 h at 37° C.

[1] = in vitro; cited from earlier work
[2] = keratitis mouse model; cited from earlier work

IRIKIRIK-NH2 [IK8L, IRIKIRIK]
S. aureus colony formation on agar plates (zone of inhibition) (S. aureus): effectively inhibited | Removal of fungal biofilms [1]: effective in removing fungal biofilms | Removal of fungal biofilms [2]: effective in removing fungal biofilms
